Among all 31,000 sequences or so, about 1,400 (4.5%) were called active.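 The calls were made as follows: active = median seed-adjusted z-score above 1 or below -1; inactive = the rest.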 The list shows a part of the results.

This experiment can be described thus: Novel Modifiers of Survival Motor Neuron (SMN) Protein: Gene Identification via Genome-wide siRNA Screen.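 Also: luminescence tracks full-length SMN protein made from the SMN2 reporter.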 As to conditions: HEK293T SMN2-luciferase reporter, siRNA knockdown, 72 h; actives lie on both sides. An outline of the steps: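 Steps: spot 1 pmol siRNA, add Lipofectamine RNAiMax in serum-free DMEM, seed HEK293T SMN2–luciferase reporter cells; incubate 72 h at 37 °C; add ONE-Glo; normalize luminescence to control siRNA, log10, MAD. Candidates: |MAD| > 1.0.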
Consider GCCUUCAGCUGUCAGCUUUTT against RBCK1, for which the median seed-adjusted z-score was inactive: 0.479.

Take GGCUGCCGAGUAUACCAUUTT against STK40: the median seed-adjusted z-score is inactive: -0.555.

For CAUAACCACUUUAAAGUCATT against GAB1, the median seed-adjusted z-score was inactive: 0.373.

With GUUGAUAGCUGGUAAUGAATT against EIF2S3, the median seed-adjusted z-score is inactive: -0.0572.

As to GGAGCUCCUUUGUGAGUUUTT against PROCR, the median seed-adjusted z-score was inactive: -0.476.

With GGAGUAUAAUGACAUAUGATT against DGKH, the median seed-adjusted z-score was inactive: 0.13.

Take GAGCACAUCCGAGAAUUAATT against ANXA11: the median seed-adjusted z-score is inactive: 0.21.

Take GCAUCGUUCCAGACGGUGUTT against MYH7B: the median seed-adjusted z-score is inactive: -0.0322.

In the case of GGCCUAAGGAAUCACCGAATT against ZNF782, the median seed-adjusted z-score is inactive: 0.117.

Take GCAUCAACGCGGGAUUCCATT against TFAP4: the median seed-adjusted z-score is inactive: -0.0515.

For CAGCUUAGAUGGAAACCAUTT against HGD, the median seed-adjusted z-score was inactive: -0.0401.

GAAAAAUUGGGAUCUUUUUTT against METTL6: the median seed-adjusted z-score is inactive: -0.415.

Take GAAUGGGUUUGGAAGCCUUTT against TBX18: the median seed-adjusted z-score was inactive: 0.424.

As for CAAUGAUCGGGAGCGAGUATT against ARF3, the median seed-adjusted z-score is inactive: 0.18.

Consider GGAGUGUACUUUGAGGAUUTT against ZFP57, for which the median seed-adjusted z-score was inactive: -0.267.

For the sequence GUCAGAGGAUGGUCCCAAATT against PRDM14, the median seed-adjusted z-score is inactive: 0.316.

Consider CCUUUAACCAGUCUGCACATT against ZNF85, for which the median seed-adjusted z-score is active: -1.01.

GGAAACGAAGUGAAGCUAATT against PECI: the median seed-adjusted z-score is inactive: -0.0254.

With GGGUUUUGGAGAUCAUAUUTT against TXNDC12, the median seed-adjusted z-score is inactive: -0.154.

As for CCAGAUCCGCGAACUGGAATT against HOXD11, the median seed-adjusted z-score is inactive: -0.185.

CUACAACACUUUUGACGGUTT against BMPER: the median seed-adjusted z-score is inactive: -0.684.

On to GAAUGUUAAAAGACAACAATT against CLINT1, for which the median seed-adjusted z-score is inactive: 0.332.

In the case of CCUCAUAUGUGGGACAGAATT against USP3, the median seed-adjusted z-score was inactive: -0.176.

For CUGUGAUGCUUUCACCUAUTT against TFPI2, the median seed-adjusted z-score was inactive: 0.519.

Regarding GCAGAGUCAUCAUGAGCUATT against SMAD5, the median seed-adjusted z-score was inactive: -0.701.

Consider GCACAGAGGUGACAUCUCATT against TP53I13, for which the median seed-adjusted z-score is inactive: 0.

For GCAUCUACCGAGUGGCCAATT against ADRA2C, the median seed-adjusted z-score is inactive: 0.

On to CCGUCAAUGAGGGCACCUATT against MMP23B, for which the median seed-adjusted z-score was inactive: 0.288.

In the case of ACACUUCACCUAGCAGAGATT against PTK7, the median seed-adjusted z-score was inactive: 0.548.

On to GCCCUUCACUGAGGAGUUUTT against GRHL3, for which the median seed-adjusted z-score was inactive: -0.0434.

GAAUUCACUUCAGAGCAAUTT against LMO4: the median seed-adjusted z-score was inactive: -0.067.

Regarding GAAAUGCGAGCUGAACAUATT against CMAS, the median seed-adjusted z-score is inactive: -0.491.

As for GUGUAGCAAUAAAACGGAUTT against STK39, the median seed-adjusted z-score was inactive: 0.232.

On to UUAUUUCUGUCUUAUCUUATT against PHF7, for which the median seed-adjusted z-score was inactive: 0.425.

For CGAUGUCAGUUUCUAGUAATT against USP42, the median seed-adjusted z-score was inactive: -0.0125.

As for CCUUCGAUAUGUCAGGCGATT against CSNK1G1, the median seed-adjusted z-score is inactive: -0.255.

On to AGGACAAGCCCGUUUCUUUTT against THAP1, for which the median seed-adjusted z-score was inactive: 0.139.

As to GGCAAGACUUCGCACCUCATT against SP8, the median seed-adjusted z-score was inactive: -0.215.

Consider GCGAUUGCUUUGAUGGGUATT against LTBP1, for which the median seed-adjusted z-score is inactive: 0.143.

Consider AGAGCAUGGACAAUUCCAATT against GPS2, for which the median seed-adjusted z-score was inactive: 0.

For the sequence CCAUUGAUCUCUCCUACAATT against ECM2, the median seed-adjusted z-score is inactive: 0.179.

Consider ACAGUAAGGUCACAUCAGATT against FLOT2, for which the median seed-adjusted z-score was inactive: 0.961.

Regarding CGGAGCUUGUUAUCGCAAATT against CDK2, the median seed-adjusted z-score is inactive: -0.347.

As to GAACUUGACGAGCAGCAGATT against MAP2K2, the median seed-adjusted z-score is inactive: -0.502.

Turning to GGAUGUCUCAUUACACCAUTT against TGFBR3, the median seed-adjusted z-score was inactive: 0.285.

Turning to GCUCAUCAAGGACACCGAATT against PPP1R3F, the median seed-adjusted z-score was inactive: 0.781.

UGACCUCACCAGACCCUGATT against PTPN5: the median seed-adjusted z-score was inactive: 0.22.

As to CAGCCUCUUGUAUACAGUUTT against ACOT12, the median seed-adjusted z-score is inactive: 0.0741.

In the case of GAGCAUCCCUGAAUCCAUATT against GLYATL2, the median seed-adjusted z-score is inactive: -0.947.

CAUUGAACGCAGUCCCUUUTT against FLNC: the median seed-adjusted z-score was inactive: 0.00217.

In the case of GAGCAUCUUCUAUCCGGUUTT against LMTK2, the median seed-adjusted z-score was inactive: -0.565.

Regarding CACUUUAUCUAUUAUCGGATT against CASD1, the median seed-adjusted z-score is inactive: 0.202.

Turning to GAAUGAAUUCUCUACUCUATT against ERBB3, the median seed-adjusted z-score was inactive: -0.561.

Consider GUCCGGUGUUUGAACCUGATT against ABHD2, for which the median seed-adjusted z-score is active: -1.21.

Turning to GGGAGUAUCUGUUAGGAGATT against PRSS35, the median seed-adjusted z-score was inactive: -0.0119.

With GGACGACCUGCUCAAUGUATT against TRIM29, the median seed-adjusted z-score was inactive: 0.331.

Consider GGUAGUUAUUGUCCAACUATT against FGG, for which the median seed-adjusted z-score is inactive: -0.043.

On to GCAUGGGUUUUAUUAUAUATT against CCL11, for which the median seed-adjusted z-score is inactive: -0.221.

GGAAUUAACAGCUAACAAUTT against MBTPS1: the median seed-adjusted z-score is inactive: -0.551.

For the sequence GCUCUAGCCUUUUUCGACATT against ZNF551, the median seed-adjusted z-score is inactive: -0.171.

Turning to CAGCAGAUCUCUAAGCUGATT against NCOR2, the median seed-adjusted z-score was inactive: -0.305.

For the sequence CCUGUCUACUGUUCUAUCATT against PSMA6, the median seed-adjusted z-score was inactive: -0.768.

Consider CUAUAGCUUUGGAUCGGUATT against HTR1F, for which the median seed-adjusted z-score is inactive: -0.127.

For GCAUCCUGUUUGUAAAUGATT against DLG4, the median seed-adjusted z-score was inactive: -0.498.

On to GGUAAAAGUGGAACUGAAATT against LBP, for which the median seed-adjusted z-score was inactive: -0.207.

Consider UGGUGUACACUGUUACUCATT against LOC158381, for which the median seed-adjusted z-score was inactive: 0.

GGAAUAUACCUUCAUGUCATT against ZNF18: the median seed-adjusted z-score was inactive: -0.27.

GGAGAGCUCCUGAUGAGGATT against SLC1A7: the median seed-adjusted z-score was inactive: -0.781.

(Values after PubChem BioAssay AID1347426 (Functional Genomics Laboratory (NCATS/FGL), 2020).)
